Laboratory results as given in EP4685489A2 (Roche Diagnostics GmbH, dated 2026).
No constants are given. Whether binding was seen depends on the method and setting. Some entries that bind do so weakly or less than the wild type.

Amino acid sequences for entries named in this document (tags omitted). A change or cut given only in a name is not applied to a line headed by its entry.
UniProt Q14896: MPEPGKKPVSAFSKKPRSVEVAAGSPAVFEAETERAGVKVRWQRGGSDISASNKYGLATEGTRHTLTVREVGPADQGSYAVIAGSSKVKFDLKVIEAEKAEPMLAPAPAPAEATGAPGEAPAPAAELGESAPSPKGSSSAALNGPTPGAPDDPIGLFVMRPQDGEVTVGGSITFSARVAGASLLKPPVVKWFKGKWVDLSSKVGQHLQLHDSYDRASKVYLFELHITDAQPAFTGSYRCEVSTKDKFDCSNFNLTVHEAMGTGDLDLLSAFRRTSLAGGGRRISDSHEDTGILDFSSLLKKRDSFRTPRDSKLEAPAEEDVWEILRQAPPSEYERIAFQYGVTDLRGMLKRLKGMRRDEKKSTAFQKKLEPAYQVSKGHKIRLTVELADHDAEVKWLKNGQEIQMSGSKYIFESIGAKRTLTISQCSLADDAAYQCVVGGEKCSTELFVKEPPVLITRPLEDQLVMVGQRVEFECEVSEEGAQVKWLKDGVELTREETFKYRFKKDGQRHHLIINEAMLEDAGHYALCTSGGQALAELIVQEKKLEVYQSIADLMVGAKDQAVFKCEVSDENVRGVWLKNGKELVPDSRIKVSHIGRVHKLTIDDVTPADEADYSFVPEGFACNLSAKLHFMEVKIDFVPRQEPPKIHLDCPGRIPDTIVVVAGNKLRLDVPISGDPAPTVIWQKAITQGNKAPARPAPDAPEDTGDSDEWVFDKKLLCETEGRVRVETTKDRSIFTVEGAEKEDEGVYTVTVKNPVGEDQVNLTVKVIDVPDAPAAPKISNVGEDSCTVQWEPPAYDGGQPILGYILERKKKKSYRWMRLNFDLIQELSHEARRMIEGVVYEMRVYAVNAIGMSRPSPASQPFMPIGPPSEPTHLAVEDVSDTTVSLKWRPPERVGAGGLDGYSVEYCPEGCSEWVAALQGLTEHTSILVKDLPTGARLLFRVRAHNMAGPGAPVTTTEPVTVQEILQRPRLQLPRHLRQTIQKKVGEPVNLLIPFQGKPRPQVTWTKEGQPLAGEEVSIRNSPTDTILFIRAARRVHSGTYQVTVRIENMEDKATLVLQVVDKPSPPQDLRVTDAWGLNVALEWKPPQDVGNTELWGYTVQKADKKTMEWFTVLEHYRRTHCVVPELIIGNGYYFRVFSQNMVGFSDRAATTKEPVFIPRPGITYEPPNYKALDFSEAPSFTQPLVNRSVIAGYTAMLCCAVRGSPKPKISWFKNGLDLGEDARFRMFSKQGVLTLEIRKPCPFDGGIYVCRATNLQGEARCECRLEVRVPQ

Tests used:
[1] = target: recombinant MYBPC3, monomeric, biotinylated via Avi-tag (human) (UniProt Q14896); experiment: screening ELISA on biotinylated MYBPC3 and SPR kinetic screening of hybridoma supernatants
[2] = target: recombinant MYBPC3, monomeric, biotinylated via Avi-tag (human) (UniProt Q14896); experiment: screening ELISA on biotinylated MYBPC3 and SPR kinetic screening of B-cell supernatants

Row | binding [1] | binding [2] | Binder
1 | binds |  | monoclonal antibody 4.1.1 (antibody, V domains shown, Mouse hybridoma monoclonal IgG; Biotinylated, DIG-labelled or ruthenylated in the sandwich assays; also called M-4.1.1; M.4.1.1) VH: QVQLKESGPGLVAPSQSLSITCTVSGFSLTGYGVNWVRQPPGKGLEWLGMIWGDGSTDYNSVYKSRLSISKDNSKSQVFLKMNSLQTDDTARYYCARRDTGGASMDYWGQGTSVTVSS VL: DILMTQSPAILSVSPGERVSFSCRASQNIGTNMHWYQQRTNGSPRLLIRFASESFSGIPSRFSGTGSGTDFTLRINSVESEDIADYYCQQSYNWPFTFGAGTKLELK
2 |  | binds | monoclonal antibody 7B5 (antibody, V domains shown, Rabbit B-cell derived monoclonal IgG, expressed recombinantly in HEK293 cells; Biotinylated, DIG-labelled or ruthenylated in the sandwich assays; also called mAB 7B5; MAK<MYPBC3<rK-7B5-IgG(SPA)) VH: QEQLEESGGGLVKPGGTLTLTCKVSGFDFSSGYDMCWVRQAPGKGLESIACIGSSSASTWYANWVNGRFTVSRSTSLNTVDLKMTSLTVADTATYFCARESSTEYYYNLWGPGTLVTVSS VL: DIVMTQTPASVEAAVGGTVTIKCQASQSIGNALAWYQQKPGQPPKLLIYSTSYLPSGVPSRFKGGGSGAEYTLTISDLECADAATYYCQSYYVSTSSSDRSSFGGGTEVVVK
